# Data from the supplement of paper PMC12067093, “Discovery and optimisation of a covalent ligand for TRIM25 and its application to targeted protein ubiquitination” (Chemical Science, 2025).
# Chains of the proteins cited; added tags and fusions are not shown. Lines headed by an entry give the natural chain unless they say otherwise; changes in a name come on top.
# UniProt Q8N2K0: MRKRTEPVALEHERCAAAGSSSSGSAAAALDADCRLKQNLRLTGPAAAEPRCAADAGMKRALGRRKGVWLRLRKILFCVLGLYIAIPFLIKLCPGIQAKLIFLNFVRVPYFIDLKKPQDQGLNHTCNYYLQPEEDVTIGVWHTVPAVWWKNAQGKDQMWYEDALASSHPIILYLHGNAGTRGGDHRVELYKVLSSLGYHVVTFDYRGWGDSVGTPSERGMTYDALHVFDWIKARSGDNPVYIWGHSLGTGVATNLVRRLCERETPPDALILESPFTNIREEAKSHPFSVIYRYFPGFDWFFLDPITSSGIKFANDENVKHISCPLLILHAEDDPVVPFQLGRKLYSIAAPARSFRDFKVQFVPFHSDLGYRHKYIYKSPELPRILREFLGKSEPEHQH
# UniProt Q9UKV3: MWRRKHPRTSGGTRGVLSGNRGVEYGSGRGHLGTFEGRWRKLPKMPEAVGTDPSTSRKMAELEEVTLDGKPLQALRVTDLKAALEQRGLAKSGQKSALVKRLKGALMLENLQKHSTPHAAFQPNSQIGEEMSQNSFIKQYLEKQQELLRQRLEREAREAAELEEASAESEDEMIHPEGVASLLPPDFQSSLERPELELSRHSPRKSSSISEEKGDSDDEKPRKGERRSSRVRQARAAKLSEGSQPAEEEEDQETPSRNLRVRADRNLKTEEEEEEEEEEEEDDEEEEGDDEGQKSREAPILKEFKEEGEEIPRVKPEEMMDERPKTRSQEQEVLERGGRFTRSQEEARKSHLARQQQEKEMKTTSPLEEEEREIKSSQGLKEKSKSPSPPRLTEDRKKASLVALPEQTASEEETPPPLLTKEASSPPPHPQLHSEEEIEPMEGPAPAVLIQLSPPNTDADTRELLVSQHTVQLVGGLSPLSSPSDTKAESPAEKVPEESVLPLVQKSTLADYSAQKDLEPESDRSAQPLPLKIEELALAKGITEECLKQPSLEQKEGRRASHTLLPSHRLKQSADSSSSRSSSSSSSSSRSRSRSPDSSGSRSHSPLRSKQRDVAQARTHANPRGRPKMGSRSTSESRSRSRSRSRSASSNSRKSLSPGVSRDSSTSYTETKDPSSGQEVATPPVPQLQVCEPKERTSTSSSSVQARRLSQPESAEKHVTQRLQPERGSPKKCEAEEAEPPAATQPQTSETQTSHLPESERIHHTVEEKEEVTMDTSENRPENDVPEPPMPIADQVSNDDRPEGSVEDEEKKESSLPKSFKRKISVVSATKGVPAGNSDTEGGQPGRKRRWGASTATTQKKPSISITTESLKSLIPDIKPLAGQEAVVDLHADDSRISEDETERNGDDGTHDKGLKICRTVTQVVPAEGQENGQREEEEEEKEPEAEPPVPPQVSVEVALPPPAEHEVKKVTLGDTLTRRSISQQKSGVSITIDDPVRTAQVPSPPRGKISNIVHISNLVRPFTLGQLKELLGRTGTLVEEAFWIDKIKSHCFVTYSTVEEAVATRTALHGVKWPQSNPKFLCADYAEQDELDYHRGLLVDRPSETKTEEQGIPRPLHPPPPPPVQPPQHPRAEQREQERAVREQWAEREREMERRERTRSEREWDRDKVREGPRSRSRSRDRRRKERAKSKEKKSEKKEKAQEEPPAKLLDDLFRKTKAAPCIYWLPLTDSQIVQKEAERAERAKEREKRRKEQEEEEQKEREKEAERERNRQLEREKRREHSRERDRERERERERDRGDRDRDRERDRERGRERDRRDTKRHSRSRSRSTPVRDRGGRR
# UniProt Q8NE71: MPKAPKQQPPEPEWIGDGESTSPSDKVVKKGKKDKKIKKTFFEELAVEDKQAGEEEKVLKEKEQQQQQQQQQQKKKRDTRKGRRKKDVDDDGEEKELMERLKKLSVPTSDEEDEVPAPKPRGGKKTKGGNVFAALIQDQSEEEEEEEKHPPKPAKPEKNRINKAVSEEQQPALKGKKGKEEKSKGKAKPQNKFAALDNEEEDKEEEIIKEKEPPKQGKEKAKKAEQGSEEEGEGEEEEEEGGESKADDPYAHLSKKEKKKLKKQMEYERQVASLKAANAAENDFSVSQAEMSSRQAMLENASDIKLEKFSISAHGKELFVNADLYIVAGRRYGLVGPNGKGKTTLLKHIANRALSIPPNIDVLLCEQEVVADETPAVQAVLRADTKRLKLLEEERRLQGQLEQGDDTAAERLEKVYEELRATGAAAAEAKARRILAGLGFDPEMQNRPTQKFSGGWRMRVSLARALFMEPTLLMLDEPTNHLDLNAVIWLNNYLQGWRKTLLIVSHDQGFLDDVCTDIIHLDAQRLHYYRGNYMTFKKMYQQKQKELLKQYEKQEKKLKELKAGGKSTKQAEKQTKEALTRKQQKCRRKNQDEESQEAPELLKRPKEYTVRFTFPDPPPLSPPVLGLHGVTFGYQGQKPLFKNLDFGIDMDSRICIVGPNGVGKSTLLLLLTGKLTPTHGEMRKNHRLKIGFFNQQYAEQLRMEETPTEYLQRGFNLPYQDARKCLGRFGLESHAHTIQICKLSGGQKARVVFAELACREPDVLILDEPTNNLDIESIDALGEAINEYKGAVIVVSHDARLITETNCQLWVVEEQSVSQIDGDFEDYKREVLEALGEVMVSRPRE
# UniProt P33527: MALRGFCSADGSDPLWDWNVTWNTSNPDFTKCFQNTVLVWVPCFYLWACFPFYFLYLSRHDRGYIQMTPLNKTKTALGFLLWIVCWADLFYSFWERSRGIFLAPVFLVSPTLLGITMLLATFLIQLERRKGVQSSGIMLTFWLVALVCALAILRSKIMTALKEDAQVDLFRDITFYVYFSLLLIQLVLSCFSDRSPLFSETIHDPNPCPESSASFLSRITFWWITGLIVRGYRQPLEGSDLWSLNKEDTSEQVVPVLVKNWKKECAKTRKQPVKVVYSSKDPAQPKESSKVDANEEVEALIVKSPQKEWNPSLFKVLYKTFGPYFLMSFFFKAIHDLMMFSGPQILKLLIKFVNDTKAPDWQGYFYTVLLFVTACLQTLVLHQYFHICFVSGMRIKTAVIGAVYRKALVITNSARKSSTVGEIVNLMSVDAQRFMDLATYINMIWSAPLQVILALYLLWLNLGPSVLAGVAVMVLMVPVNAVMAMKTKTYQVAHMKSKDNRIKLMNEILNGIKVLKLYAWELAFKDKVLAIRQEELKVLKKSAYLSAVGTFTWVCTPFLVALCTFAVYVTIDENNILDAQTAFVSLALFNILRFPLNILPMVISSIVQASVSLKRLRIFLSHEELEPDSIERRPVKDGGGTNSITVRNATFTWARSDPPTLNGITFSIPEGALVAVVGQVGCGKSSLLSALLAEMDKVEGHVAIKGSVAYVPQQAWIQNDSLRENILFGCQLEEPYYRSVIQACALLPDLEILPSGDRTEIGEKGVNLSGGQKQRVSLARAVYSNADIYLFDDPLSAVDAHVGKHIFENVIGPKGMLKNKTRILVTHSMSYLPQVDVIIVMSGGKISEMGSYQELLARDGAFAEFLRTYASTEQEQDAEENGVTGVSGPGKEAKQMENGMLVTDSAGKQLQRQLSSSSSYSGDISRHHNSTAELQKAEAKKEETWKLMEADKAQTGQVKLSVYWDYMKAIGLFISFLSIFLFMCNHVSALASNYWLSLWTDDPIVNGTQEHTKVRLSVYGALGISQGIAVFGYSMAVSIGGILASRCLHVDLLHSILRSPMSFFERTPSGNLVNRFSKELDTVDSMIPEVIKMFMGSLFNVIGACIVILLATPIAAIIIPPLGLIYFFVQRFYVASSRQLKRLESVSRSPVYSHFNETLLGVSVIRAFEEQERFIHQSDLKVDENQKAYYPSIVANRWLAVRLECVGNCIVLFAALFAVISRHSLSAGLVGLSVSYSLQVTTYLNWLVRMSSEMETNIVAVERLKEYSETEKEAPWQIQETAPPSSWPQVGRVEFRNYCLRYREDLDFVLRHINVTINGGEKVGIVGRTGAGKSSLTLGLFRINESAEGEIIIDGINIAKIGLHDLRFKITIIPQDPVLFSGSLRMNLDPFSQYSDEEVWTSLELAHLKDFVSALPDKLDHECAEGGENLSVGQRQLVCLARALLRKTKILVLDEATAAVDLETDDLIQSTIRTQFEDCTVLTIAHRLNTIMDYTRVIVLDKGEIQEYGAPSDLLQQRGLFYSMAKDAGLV
# UniProt P01023, whole entry: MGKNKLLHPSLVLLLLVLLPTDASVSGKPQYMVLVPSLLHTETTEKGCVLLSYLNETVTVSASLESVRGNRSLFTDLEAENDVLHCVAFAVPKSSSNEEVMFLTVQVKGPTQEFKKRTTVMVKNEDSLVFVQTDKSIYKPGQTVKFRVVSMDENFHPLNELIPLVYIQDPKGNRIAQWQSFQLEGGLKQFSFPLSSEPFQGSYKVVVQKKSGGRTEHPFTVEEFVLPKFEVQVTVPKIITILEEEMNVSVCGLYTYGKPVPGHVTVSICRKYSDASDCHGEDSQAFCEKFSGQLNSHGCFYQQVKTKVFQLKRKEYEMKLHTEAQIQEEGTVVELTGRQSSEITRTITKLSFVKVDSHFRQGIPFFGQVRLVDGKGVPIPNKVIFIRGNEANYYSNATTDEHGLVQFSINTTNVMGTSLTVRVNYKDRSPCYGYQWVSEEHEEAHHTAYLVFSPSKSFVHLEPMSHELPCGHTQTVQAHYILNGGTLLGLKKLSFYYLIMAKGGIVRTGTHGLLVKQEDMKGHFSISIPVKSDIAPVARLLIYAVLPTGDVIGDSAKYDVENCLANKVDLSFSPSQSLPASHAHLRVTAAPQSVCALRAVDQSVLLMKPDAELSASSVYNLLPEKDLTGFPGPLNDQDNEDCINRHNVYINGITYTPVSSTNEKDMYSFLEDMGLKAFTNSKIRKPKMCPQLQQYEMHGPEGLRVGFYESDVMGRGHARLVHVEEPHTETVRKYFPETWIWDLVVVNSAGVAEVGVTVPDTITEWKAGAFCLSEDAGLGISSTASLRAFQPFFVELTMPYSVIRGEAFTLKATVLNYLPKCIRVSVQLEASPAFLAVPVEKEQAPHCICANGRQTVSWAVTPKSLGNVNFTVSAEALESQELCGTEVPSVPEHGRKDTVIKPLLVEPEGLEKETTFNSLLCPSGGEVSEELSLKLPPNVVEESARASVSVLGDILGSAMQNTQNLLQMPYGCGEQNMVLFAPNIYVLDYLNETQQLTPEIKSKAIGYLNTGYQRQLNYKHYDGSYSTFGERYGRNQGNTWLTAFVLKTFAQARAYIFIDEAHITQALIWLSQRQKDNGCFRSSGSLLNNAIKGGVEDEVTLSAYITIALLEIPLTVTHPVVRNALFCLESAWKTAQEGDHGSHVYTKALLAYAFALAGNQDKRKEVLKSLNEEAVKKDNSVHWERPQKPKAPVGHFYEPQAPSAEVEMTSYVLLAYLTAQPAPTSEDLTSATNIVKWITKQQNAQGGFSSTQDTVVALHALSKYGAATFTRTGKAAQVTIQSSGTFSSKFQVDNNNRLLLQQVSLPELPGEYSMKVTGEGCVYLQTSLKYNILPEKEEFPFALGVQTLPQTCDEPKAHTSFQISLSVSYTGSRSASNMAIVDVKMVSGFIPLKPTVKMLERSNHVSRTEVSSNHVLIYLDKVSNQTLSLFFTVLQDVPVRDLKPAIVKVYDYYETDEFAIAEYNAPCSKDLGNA
# UniProt Q99798: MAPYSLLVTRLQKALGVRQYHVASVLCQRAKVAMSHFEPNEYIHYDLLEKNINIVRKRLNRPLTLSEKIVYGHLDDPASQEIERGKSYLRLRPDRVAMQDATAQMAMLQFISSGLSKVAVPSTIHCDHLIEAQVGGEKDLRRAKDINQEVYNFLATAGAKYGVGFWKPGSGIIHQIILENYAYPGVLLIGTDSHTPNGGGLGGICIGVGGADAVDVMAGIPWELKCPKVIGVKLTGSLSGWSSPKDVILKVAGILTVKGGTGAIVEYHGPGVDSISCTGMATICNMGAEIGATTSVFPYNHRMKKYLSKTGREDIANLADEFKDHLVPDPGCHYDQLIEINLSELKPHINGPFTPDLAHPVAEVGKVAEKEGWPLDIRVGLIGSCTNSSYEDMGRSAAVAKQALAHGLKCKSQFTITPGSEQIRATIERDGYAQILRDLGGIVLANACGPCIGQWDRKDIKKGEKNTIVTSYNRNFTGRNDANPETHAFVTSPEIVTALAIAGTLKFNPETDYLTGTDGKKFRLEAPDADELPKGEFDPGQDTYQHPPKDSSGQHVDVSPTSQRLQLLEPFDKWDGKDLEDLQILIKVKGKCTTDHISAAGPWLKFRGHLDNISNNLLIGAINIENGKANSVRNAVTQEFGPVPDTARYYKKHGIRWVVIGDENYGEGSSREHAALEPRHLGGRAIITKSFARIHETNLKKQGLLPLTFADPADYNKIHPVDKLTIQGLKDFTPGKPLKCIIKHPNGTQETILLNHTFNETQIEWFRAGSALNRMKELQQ
# The other results are listed elsewhere or left out.
# Compound: Cc1cc(ccc1-c1ccccc1)C(=O)N1CCCN(CC1)C(=O)CCl [compound 10]
# Assay: probe-labelled cysteine peptide fold change vs DMSO (competition) (log2 fold change); higher = less target engagement (more negative = stronger competition)
# Details: 10 µM; THP-1; incubation time: 4 h
# 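Note: competitive profiling in live THP-1 cells: cysteine peptides tagged with an iodoacetamide desthiobiotin (IA-DTB) probe, intensity after compound treatment relative to DMSO-treated cells.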
row,Target,probe-labelled cysteine peptide fold change
1,ABHD12_Q8N2K0_52_CAADAGMK (UniProt Q8N2K0),-0.21
2,ACAT2_Q9BWD1_158_IGEMPLTDSILCDGLTDAFHNCHMGITAENVAK (UniProt Q9BWD1),-0.0316
3,ACIN1_Q9UKV3_546_GITEECLK (UniProt Q9UKV3),-0.137
4,ACAD9_Q9H845_613_AYICAHPLDR (UniProt Q9H845),-0.0975
5,ABHD16A_O95870_248_LVEECNGR (UniProt O95870),0.0158
6,ABCD1_P33897_599_EGGWEAMCDWK (UniProt P33897),-0.0988
7,ACAT2_Q9BWD1_65_RATVAPEDVSEVIFGHVLAAGCGQNPVR (UniProt Q9BWD1),-6.94e-05
8,AACS_Q86V21_525_FPGIWAHGDYCR (UniProt Q86V21),0.162
9,ACAA2_P42765_128_EAEVVLCGGTESMSQAPYCVR (UniProt P42765),-0.368
10,AAAS_Q9NRG9_444_NSPVFELLPCGIIQGEPGAQPQLITFHPSFNK (UniProt Q9NRG9),0.143
11,ACACA_Q13085_1176_DNTCVVEFQFMLPTSHPNR (UniProt Q13085),0.179
12,ACLY_P53396_519_AVQGMLDFDYVCSRDEPSVAAMVYPFTGDHK (UniProt P53396),-0.324
13,ACLY_P53396_519_AVQGMLDFDYVCSR (UniProt P53396),0.0361
14,AAR2_Q9Y312_156_QICAFSDVLPVLSMK (UniProt Q9Y312),-0.0329
15,AARS2_Q5JTZ9_750_VVSVGVPVAHALDPASQAALQTSVELCCGTHLLR (UniProt Q5JTZ9),0.259
16,ABR_Q12979_158_EFYDNLCPK (UniProt Q12979),-0.0958
17,ACOT2_P49753_401_SEFYANEACK (UniProt P49753),-0.205
18,ACAA1_P09110_218_GCFQAEIVPVTTTVHDDK (UniProt P09110),-0.0407
19,ABCE1_P61221_227_FACAVVCIQK (UniProt P61221),-0.0881

row,Target,probe-labelled cysteine peptide fold change
1,ACACA_Q13085_1470_TDCNHIFLNFVPTVIMDPSK (UniProt Q13085),0.195
2,ACACB_O00763_1429_SLREEPIHILNVSIQCADHLEDEALVPILR (UniProt O00763),-0.273
3,ABHD6_Q9BV23_217_IPLIPSTPEEMSEMLQLCSYVR (UniProt Q9BV23),0.243
4,A2ML1_A8K2U0_694_PVDCSHR (UniProt A8K2U0),-0.00566
5,ACACA_Q13085_1769_RVSALNSVHCEHVEDEGESR (UniProt Q13085),0.251
6,ABCF1_Q8NE71_758_VVFAELACR (UniProt Q8NE71),0.145
7,AARS_P49588_901+903_ITCLCQVPQNAANR (UniProt P49588),0.298
8,AARS2_Q5JTZ9_300_HSTYDTDLFSPLLNAIQQGCR (UniProt Q5JTZ9),0.101
9,ABCC1_P33527_1047_CLHVDLLHSILR (UniProt P33527),-0.245
10,ACIN1_Q9UKV3_1083_FLCADYAEQDELDYHR (UniProt Q9UKV3),0.00781
11,ACACA_Q13085_1297_TDCDIEDDRLAAMFR (UniProt Q13085),0.00907
12,A2M_P01023_299_FSGQLNSHGCFYQQVK (UniProt P01023),0.0748
13,ABHD17A_Q96GS6_205_YECAAVVLHSPLTSGMR (UniProt Q96GS6),0.00182
14,ACO2_Q99798_592_CTTDHISAAGPWLK (UniProt Q99798),0.0389
15,AAK1_Q2M2I8_250_ADIWALGCLLYK (UniProt Q2M2I8),0.186
16,ACAP2_Q15057_10_MTVDFEECLK (UniProt Q15057),-0.0177
17,ACAP2_Q15057_691_GPLHHATVLGHTGQVCLFLK (UniProt Q15057),-0.107
18,ACADM_P11310_159_MTEEPLMCAYCVTEPGAGSDVAGIK (UniProt P11310),-0.0645
19,ABCE1_P61221_475_VALALCLGK (UniProt P61221),0.0849

# Same assay, conditions: 50 µM; THP-1; incubation time: 4 h
row,Target,probe-labelled cysteine peptide fold change
1,ABHD12_Q8N2K0_52_CAADAGMK (UniProt Q8N2K0),-0.693
2,ACAT2_Q9BWD1_158_IGEMPLTDSILCDGLTDAFHNCHMGITAENVAK (UniProt Q9BWD1),-0.347
3,ACIN1_Q9UKV3_546_GITEECLK (UniProt Q9UKV3),-0.182
4,ACAD9_Q9H845_613_AYICAHPLDR (UniProt Q9H845),0.218
5,ABHD16A_O95870_248_LVEECNGR (UniProt O95870),-0.11
6,ABCD1_P33897_599_EGGWEAMCDWK (UniProt P33897),-0.155
7,ACAT2_Q9BWD1_65_RATVAPEDVSEVIFGHVLAAGCGQNPVR (UniProt Q9BWD1),0.224
8,AACS_Q86V21_525_FPGIWAHGDYCR (UniProt Q86V21),-0.0193
9,ACAA2_P42765_128_EAEVVLCGGTESMSQAPYCVR (UniProt P42765),-0.323
10,AAAS_Q9NRG9_444_NSPVFELLPCGIIQGEPGAQPQLITFHPSFNK (UniProt Q9NRG9),0.272
11,ACACA_Q13085_1176_DNTCVVEFQFMLPTSHPNR (UniProt Q13085),0.423
12,ACLY_P53396_519_AVQGMLDFDYVCSRDEPSVAAMVYPFTGDHK (UniProt P53396),-0.296
13,ACLY_P53396_519_AVQGMLDFDYVCSR (UniProt P53396),0.231
14,AAR2_Q9Y312_156_QICAFSDVLPVLSMK (UniProt Q9Y312),-0.26
15,AARS2_Q5JTZ9_750_VVSVGVPVAHALDPASQAALQTSVELCCGTHLLR (UniProt Q5JTZ9),-0.431
16,ABR_Q12979_158_EFYDNLCPK (UniProt Q12979),-0.113
17,ACOT2_P49753_401_SEFYANEACK (UniProt P49753),-0.305
18,ACAA1_P09110_218_GCFQAEIVPVTTTVHDDK (UniProt P09110),0.0209
19,ABCE1_P61221_227_FACAVVCIQK (UniProt P61221),-0.36

row,Target,probe-labelled cysteine peptide fold change
1,ACACA_Q13085_1470_TDCNHIFLNFVPTVIMDPSK (UniProt Q13085),0.108
2,ACACB_O00763_1429_SLREEPIHILNVSIQCADHLEDEALVPILR (UniProt O00763),-0.503
3,ABHD6_Q9BV23_217_IPLIPSTPEEMSEMLQLCSYVR (UniProt Q9BV23),0.359
4,A2ML1_A8K2U0_694_PVDCSHR (UniProt A8K2U0),0.00578
5,ACACA_Q13085_1769_RVSALNSVHCEHVEDEGESR (UniProt Q13085),0.453
6,ABCF1_Q8NE71_758_VVFAELACR (UniProt Q8NE71),0.239
7,AARS_P49588_901+903_ITCLCQVPQNAANR (UniProt P49588),0.0151
8,AARS2_Q5JTZ9_300_HSTYDTDLFSPLLNAIQQGCR (UniProt Q5JTZ9),-0.0174
9,ABCC1_P33527_1047_CLHVDLLHSILR (UniProt P33527),-0.823
10,ACIN1_Q9UKV3_1083_FLCADYAEQDELDYHR (UniProt Q9UKV3),0.134
11,ACACA_Q13085_1297_TDCDIEDDRLAAMFR (UniProt Q13085),-0.423
12,A2M_P01023_299_FSGQLNSHGCFYQQVK (UniProt P01023),0.244
13,ABHD17A_Q96GS6_205_YECAAVVLHSPLTSGMR (UniProt Q96GS6),0.0905
14,ACO2_Q99798_592_CTTDHISAAGPWLK (UniProt Q99798),-0.0267
15,AAK1_Q2M2I8_250_ADIWALGCLLYK (UniProt Q2M2I8),0.432
16,ACAP2_Q15057_10_MTVDFEECLK (UniProt Q15057),0.127
17,ACAP2_Q15057_691_GPLHHATVLGHTGQVCLFLK (UniProt Q15057),-1.08
18,ACADM_P11310_159_MTEEPLMCAYCVTEPGAGSDVAGIK (UniProt P11310),-0.598
19,ABCE1_P61221_475_VALALCLGK (UniProt P61221),0.232
